Test [1] has as its target T1, FLAG-VRK3 (in SH-SY5Y cells) (not stated (human or mouse cDNA cloned)) (UniProt Q8K3G5).
T1 sequence: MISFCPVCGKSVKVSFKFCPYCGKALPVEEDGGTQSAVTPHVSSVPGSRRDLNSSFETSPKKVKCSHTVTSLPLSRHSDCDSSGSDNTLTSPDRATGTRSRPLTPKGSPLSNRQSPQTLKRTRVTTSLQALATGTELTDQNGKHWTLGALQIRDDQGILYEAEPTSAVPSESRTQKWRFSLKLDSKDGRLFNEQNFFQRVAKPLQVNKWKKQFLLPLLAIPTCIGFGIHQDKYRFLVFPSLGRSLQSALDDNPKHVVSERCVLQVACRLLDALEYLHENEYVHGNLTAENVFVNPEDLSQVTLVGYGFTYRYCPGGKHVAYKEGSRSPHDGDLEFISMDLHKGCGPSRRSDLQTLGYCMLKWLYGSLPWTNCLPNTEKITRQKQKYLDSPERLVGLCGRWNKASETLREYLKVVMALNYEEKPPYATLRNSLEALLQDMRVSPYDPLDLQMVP
In words: co-IP; HA-tagged full length HSP70 or its fragments expressed along with FLAG-VRK3 in SH-SY5Y cells.

The target of test [2] is FLAG-HSP70 (stress-inducible HSP70 form, HSP70A1A) (not stated (human or mouse cDNA cloned)). The test is described as follows: co-IP; anti-FLAG immunoprecipitation from SH-SY5Y cell lysates expressing FLAG-HSP70; endogenous VHR and VRK3 detected.

Results are given in words; binding and its absence hold for the method and conditions named. Binding seen in cells or lysates may run through a third protein. Binding calls can cover weak binding; strength is not graded here. For part of these data: Tags and fused reporters may be left off the sequences shown.

The record followed here is article PMC5150261.

Take “HA-tagged HSP70 F2 fragment (amino acids 381-537) (domain or fragment)”: the binding result in test [1] is listed as “binds”.

As to HA-tagged full length HSP70, the binding entry in test [1] is listed as “binds”.

B1: endogenous VRK3 (vaccinia-related kinase 3) (protein, UniProt Q8IV63 1-474)
chain: MISFCPDCGKSIQAAFKFCPYCGNSLPVEEHVGSQTFVNPHVSSFQGSKRGLNSSFETSPKKVKWSSTVTSPRLSLFSDGDSSESEDTLSSSERSKGSGSRPPTPKSSPQKTRKSPQVTRGSPQKTSCSPQKTRQSPQTLKRSRVTTSLEALPTGTVLTDKSGRQWKLKSFQTRDNQGILYEAAPTSTLTCDSGPQKQKFSLKLDAKDGRLFNEQNFFQRAAKPLQVNKWKKLYSTPLLAIPTCMGFGVHQDKYRFLVLPSLGRSLQSALDVSPKHVLSERSVLQVACRLLDALEFLHENEYVHGNVTAENIFVDPEDQSQVTLAGYGFAFRYCPSGKHVAYVEGSRSPHEGDLEFISMDLHKGCGPSRRSDLQSLGYCMLKWLYGFLPWTNCLPNTEDIMKQKQKFVDKPGPFVGPCGHWIRPSETLQKYLKVVMALTYEEKPPYAMLRNNLEALLQDLRVSPYDPIGLPMVP
For B1, the binding result in test [2] is “binds”.
